Some results were stated once for a whole list of compounds, not compound by compound.
Legend:
[1] = system: S. aureus Smith; assay: Mouse thigh infection model; format: in vivo; details: neutropenic CD-1 mice
[2] = Chemical stability assay; format: physicochemical; details: pH 7.4, 24 hours

Compound | log drop in colony forming units compared to the control ([1]; IV 30 mg/kg) [log] | log drop in colony forming units compared to the control ([1]; PO 100 mg/kg) [log] | compound remaining at 24 hours [2] [%]
CCNC(=O)Nc1nc2cc(-c3cnc(C(C)(C)O)nc3)cc(-c3ccccn3)c2s1 [Compound 1, 1-ethyl-3-[5-[2-(1-hydroxy-1-methyl-ethyl)pyrimidin-5-yl]-7-(2-pyridyl)-1,3-benzothiazol-2-yl]urea] | ≥ 3 | ≥ 3 | –
CCNC(=O)Nc1nc2cc(-c3cnc(C(C)O)nc3)cc(-c3ccccn3)c2s1 (stereo not shown) [Compound 17, 1-ethyl-3-[5-[2-(1-hydroxyethyl)pyrimidin-5-yl]-7-(2-pyridyl)-1,3-benzothiazol-2-yl]urea] | ≥ 3 | – | –
CCNC(=O)Nc1nc2cc(-c3cnc(C(C)OC(=O)CCC(=O)O)nc3)cc(-c3ccccn3)c2s1 (stereo not shown) [Compound 19, 4-[1-[5-[2-(ethylcarbamoylamino)-7-(2-pyridyl)-1,3-benzothiazol-5-yl]pyrimidin-2-yl]ethoxy]-4-oxo-butanoic acid] | – | – | ≥ 95
CCNC(=O)Nc1nc2cc(-c3cnc(C4(OC(=O)CCC(=O)O)COC4)nc3)cc(-c3ccccn3)c2s1 [Compound 123, 4-[3-[5-[2-(ethylcarbamoylamino)-7-(2-pyridyl)-1,3-benzothiazol-5-yl]pyrimidin-2-yl]oxetan-3-yl]oxy-4-oxo-butanoic acid] | – | – | ≥ 95
CCNC(=O)Nc1nc2cc(-c3cnc([C@H](C)OC(=O)CCC(=O)O)nc3)cc(-c3ccccn3)c2s1 [Compound 133, 4-[(1S)-1-[5-[2-(ethylcarbamoylamino)-7-(2-pyridyl)-1,3-benzothiazol-5-yl]pyrimidin-2-yl]ethoxy]-4-oxo-butanoic acid] | – | – | ≥ 95
CCNC(=O)Nc1nc2cc(-c3cnc([C@@H](C)OC(=O)CCC(=O)O)nc3)cc(-c3ccccn3)c2s1 [Compound 134, 4-[(1R)-1-[5-[2-(ethylcarbamoylamino)-7-(2-pyridyl)-1,3-benzothiazol-5-yl]pyrimidin-2-yl]ethoxy]-4-oxo-butanoic acid] | – | – | ≥ 95

Reference: patent US20170260178A1 (SPERO GYRASE, INC., priority 2012, published 2017)
